Reference: publication PMC4009770

Protein sequences, listed by entry. Tags and fused reporters are not part of them.
UniProt Q9HC16, whole entry E254R: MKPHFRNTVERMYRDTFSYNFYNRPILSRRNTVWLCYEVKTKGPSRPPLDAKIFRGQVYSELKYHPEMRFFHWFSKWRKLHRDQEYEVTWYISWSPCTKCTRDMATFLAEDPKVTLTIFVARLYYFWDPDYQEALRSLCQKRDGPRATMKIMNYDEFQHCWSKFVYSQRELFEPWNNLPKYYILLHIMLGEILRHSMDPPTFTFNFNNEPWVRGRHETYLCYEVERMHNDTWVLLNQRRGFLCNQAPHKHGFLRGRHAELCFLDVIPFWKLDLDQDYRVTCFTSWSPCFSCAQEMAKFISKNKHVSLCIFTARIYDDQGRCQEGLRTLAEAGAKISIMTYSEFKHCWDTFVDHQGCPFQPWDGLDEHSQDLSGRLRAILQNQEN
UniProt Q9HC16, whole entry R213E: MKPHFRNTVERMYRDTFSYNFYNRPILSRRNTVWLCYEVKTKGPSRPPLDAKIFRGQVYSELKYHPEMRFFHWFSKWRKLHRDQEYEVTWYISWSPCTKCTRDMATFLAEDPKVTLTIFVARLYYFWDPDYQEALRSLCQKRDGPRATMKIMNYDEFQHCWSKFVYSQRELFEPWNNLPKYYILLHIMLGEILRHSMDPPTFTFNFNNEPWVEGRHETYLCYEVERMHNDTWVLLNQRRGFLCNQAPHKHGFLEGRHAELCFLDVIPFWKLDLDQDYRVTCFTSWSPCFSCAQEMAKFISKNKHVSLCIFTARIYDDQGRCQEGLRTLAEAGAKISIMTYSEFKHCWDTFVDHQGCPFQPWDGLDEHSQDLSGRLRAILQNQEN
UniProt Q9HC16, whole entry R320E: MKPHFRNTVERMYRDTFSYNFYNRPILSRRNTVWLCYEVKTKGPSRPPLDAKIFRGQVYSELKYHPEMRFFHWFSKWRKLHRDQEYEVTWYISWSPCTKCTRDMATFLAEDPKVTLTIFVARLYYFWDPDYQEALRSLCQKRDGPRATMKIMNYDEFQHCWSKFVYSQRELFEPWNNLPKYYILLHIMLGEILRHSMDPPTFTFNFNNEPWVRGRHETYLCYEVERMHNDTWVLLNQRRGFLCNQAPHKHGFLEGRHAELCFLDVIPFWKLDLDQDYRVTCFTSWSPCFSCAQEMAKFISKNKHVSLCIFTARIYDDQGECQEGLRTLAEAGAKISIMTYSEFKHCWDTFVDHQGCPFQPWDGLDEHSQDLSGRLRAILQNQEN
UniProt Q9HC16, whole entry R374E: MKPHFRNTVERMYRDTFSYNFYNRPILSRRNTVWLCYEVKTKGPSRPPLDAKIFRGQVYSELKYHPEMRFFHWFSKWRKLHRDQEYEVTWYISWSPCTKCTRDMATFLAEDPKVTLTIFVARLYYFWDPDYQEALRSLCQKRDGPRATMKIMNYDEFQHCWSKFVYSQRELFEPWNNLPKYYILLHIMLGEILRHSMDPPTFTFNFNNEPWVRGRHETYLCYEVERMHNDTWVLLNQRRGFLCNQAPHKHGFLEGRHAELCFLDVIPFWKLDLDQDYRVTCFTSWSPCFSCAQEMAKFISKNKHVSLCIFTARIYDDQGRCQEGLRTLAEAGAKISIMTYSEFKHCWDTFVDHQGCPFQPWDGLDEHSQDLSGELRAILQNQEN
UniProt Q9HC16, whole entry R376E: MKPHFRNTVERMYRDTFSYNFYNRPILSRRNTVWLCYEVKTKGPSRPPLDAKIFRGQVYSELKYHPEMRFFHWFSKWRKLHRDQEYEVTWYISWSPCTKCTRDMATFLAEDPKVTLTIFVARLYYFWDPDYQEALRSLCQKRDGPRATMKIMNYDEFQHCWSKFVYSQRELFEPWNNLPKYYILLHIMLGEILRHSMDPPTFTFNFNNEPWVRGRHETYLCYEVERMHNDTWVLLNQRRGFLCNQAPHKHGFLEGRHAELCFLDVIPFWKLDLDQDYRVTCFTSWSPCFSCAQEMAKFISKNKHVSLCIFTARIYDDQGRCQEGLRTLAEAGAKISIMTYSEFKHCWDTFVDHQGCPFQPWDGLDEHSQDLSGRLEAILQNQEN
UniProt Q9HC16, whole entry W127A: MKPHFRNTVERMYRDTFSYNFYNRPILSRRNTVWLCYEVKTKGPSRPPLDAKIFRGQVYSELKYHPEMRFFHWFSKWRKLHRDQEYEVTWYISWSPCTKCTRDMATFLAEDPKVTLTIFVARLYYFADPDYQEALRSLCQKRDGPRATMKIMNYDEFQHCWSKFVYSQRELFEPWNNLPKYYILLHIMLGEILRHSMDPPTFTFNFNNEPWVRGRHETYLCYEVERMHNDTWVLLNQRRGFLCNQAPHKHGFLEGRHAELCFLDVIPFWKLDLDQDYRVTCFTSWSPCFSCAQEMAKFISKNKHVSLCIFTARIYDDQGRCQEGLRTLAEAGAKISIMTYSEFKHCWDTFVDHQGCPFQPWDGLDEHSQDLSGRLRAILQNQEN
UniProt Q9HC16, whole entry W127A/R213E/R215E: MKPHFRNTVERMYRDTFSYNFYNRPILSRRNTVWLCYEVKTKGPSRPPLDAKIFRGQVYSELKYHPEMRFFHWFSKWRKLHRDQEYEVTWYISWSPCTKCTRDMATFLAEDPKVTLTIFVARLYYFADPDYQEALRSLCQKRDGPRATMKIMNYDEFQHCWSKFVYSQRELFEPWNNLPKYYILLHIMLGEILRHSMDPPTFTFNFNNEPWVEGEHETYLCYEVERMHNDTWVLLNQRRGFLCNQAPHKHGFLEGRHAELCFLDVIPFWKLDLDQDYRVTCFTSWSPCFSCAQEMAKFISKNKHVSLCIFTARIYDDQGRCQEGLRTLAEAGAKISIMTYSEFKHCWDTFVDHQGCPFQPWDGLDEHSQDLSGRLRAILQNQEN
UniProt Q9HC16, whole entry W127A/R313E/R320E: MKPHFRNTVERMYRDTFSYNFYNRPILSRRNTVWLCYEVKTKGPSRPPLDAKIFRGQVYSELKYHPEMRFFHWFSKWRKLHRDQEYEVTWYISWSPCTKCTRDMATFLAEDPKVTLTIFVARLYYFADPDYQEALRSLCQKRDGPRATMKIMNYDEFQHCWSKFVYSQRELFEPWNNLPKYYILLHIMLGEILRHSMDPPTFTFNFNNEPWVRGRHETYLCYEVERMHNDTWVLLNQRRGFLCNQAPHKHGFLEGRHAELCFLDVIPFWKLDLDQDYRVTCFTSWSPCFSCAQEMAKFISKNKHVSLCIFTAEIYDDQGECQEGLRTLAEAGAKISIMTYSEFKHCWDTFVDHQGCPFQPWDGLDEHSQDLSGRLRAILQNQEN
UniProt Q9HC16, whole entry W127A/R374E/R376E: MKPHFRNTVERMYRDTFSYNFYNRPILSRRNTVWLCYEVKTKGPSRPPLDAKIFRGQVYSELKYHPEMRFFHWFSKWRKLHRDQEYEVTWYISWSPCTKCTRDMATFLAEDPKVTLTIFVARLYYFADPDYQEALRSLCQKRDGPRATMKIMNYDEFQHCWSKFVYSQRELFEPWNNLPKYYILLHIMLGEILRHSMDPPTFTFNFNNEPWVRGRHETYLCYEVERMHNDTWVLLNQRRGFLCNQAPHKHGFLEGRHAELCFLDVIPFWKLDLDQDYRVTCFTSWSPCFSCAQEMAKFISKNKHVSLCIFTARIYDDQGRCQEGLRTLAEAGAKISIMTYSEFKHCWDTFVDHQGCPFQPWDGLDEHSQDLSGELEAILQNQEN
UniProt Q9HC16, whole entry W285A: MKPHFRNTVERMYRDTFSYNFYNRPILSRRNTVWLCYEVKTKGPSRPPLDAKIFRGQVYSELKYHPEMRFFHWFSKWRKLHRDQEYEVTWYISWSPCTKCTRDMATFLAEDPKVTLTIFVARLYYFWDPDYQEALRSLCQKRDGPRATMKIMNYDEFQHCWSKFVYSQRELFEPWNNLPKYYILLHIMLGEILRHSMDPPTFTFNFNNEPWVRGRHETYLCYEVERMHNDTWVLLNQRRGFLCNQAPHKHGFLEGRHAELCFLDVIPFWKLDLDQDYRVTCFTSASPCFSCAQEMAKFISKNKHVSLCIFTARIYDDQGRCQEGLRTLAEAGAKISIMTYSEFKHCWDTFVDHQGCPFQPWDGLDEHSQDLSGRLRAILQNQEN
UniProt Q9HC16, whole entry W94L: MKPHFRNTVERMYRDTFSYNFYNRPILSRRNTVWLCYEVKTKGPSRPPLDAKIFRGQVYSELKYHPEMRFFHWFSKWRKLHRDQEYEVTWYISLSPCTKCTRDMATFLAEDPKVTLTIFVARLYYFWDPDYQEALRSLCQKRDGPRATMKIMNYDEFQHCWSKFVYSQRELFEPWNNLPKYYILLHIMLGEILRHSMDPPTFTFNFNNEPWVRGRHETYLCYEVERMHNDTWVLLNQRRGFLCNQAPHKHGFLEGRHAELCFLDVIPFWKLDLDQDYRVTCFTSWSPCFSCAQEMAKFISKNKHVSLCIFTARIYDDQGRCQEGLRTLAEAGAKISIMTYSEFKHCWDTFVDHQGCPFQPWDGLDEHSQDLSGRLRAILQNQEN
UniProt Q9HC16, whole entry W94L/R213E/R215E: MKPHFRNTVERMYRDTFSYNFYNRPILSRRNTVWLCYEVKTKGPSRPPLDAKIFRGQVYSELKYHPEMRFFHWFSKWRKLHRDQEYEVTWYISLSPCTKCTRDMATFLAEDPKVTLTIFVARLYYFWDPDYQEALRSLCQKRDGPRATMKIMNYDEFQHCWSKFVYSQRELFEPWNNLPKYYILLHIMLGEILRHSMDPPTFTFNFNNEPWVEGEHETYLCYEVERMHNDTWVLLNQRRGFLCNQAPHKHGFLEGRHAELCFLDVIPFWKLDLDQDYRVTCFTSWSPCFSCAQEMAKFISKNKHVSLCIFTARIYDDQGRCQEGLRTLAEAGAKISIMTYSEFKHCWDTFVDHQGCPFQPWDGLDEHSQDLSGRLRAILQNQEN
UniProt Q9HC16, whole entry W94L/R313E/R320E: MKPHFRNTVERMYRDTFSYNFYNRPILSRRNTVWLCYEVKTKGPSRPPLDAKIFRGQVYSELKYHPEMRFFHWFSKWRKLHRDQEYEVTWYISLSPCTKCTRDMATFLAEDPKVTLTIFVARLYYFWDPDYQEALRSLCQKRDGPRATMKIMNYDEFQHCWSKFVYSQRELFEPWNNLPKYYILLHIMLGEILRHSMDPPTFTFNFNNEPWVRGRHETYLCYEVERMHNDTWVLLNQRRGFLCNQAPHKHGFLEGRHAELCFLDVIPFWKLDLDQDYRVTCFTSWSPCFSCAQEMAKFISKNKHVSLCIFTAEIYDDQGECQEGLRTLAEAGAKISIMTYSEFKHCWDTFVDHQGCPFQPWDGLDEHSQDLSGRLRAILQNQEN
UniProt Q9HC16, whole entry W94L/R374E/R376E: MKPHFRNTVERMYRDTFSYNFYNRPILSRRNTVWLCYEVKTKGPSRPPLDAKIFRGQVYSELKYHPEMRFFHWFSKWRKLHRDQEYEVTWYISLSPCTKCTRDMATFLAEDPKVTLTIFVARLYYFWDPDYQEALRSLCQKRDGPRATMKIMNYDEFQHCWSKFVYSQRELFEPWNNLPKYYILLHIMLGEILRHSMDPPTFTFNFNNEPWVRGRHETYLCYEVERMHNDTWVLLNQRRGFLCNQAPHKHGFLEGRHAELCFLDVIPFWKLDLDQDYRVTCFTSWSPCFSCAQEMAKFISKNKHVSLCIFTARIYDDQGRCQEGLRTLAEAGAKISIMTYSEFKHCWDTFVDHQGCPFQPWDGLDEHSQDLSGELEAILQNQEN

Columns and labels:
Test in all cases: EMSA
[1] = target: A3G E254R (human) (UniProt Q9HC16); conditions: EMSA: 10 mM Tris-HCl pH 7.5, 50 mM NaCl, 0.5% NP-40, 4% glycerol, 1 mM MgCl2, 0.5 mM EDTA, 1 mM DTT, 20 min room temperature, 4 pmol oligo in 20 uL, gel at 4 C; recombinant protein; residues 1-384; protein details: C-terminal Strep; label: 5' Alexa488; single-stranded DNA
[2] = target: A3G R213E (human) (UniProt Q9HC16); conditions: EMSA: 10 mM Tris-HCl pH 7.5, 50 mM NaCl, 0.5% NP-40, 4% glycerol, 1 mM MgCl2, 0.5 mM EDTA, 1 mM DTT, 20 min room temperature, 4 pmol oligo in 20 uL, gel at 4 C; recombinant protein; residues 1-384; protein details: C-terminal Strep; label: 5' Alexa488; single-stranded DNA
[3] = target: A3G R320E (human) (UniProt Q9HC16); conditions: EMSA: 10 mM Tris-HCl pH 7.5, 50 mM NaCl, 0.5% NP-40, 4% glycerol, 1 mM MgCl2, 0.5 mM EDTA, 1 mM DTT, 20 min room temperature, 4 pmol oligo in 20 uL, gel at 4 C; recombinant protein; residues 1-384; protein details: C-terminal Strep; label: 5' Alexa488; single-stranded DNA
[4] = target: A3G R374E (human) (UniProt Q9HC16); conditions: EMSA: 10 mM Tris-HCl pH 7.5, 50 mM NaCl, 0.5% NP-40, 4% glycerol, 1 mM MgCl2, 0.5 mM EDTA, 1 mM DTT, 20 min room temperature, 4 pmol oligo in 20 uL, gel at 4 C; recombinant protein; residues 1-384; protein details: C-terminal Strep; label: 5' Alexa488; single-stranded DNA
[5] = target: A3G R376E (human) (UniProt Q9HC16); conditions: EMSA: 10 mM Tris-HCl pH 7.5, 50 mM NaCl, 0.5% NP-40, 4% glycerol, 1 mM MgCl2, 0.5 mM EDTA, 1 mM DTT, 20 min room temperature, 4 pmol oligo in 20 uL, gel at 4 C; recombinant protein; residues 1-384; protein details: C-terminal Strep; label: 5' Alexa488; single-stranded DNA
[6] = target: A3G W127A (human) (UniProt Q9HC16); conditions: EMSA: 10 mM Tris-HCl pH 7.5, 50 mM NaCl, 0.5% NP-40, 4% glycerol, 1 mM MgCl2, 0.5 mM EDTA, 1 mM DTT, 20 min room temperature, 4 pmol oligo in 20 uL, gel at 4 C; recombinant protein; residues 1-384; protein details: C-terminal Strep; label: 5' Alexa488; single-stranded DNA
[7] = target: A3G W127A/R213E/R215E (human) (UniProt Q9HC16); conditions: EMSA: 10 mM Tris-HCl pH 7.5, 50 mM NaCl, 0.5% NP-40, 4% glycerol, 1 mM MgCl2, 0.5 mM EDTA, 1 mM DTT, 20 min room temperature, 4 pmol oligo in 20 uL, gel at 4 C; recombinant protein; residues 1-384; protein details: C-terminal Strep; label: 5' Alexa488; single-stranded DNA
[8] = target: A3G W127A/R313E/R320E (human) (UniProt Q9HC16); conditions: EMSA: 10 mM Tris-HCl pH 7.5, 50 mM NaCl, 0.5% NP-40, 4% glycerol, 1 mM MgCl2, 0.5 mM EDTA, 1 mM DTT, 20 min room temperature, 4 pmol oligo in 20 uL, gel at 4 C; recombinant protein; residues 1-384; protein details: C-terminal Strep; label: 5' Alexa488; single-stranded DNA
[9] = target: A3G W127A/R374E/R376E (human) (UniProt Q9HC16); conditions: EMSA: 10 mM Tris-HCl pH 7.5, 50 mM NaCl, 0.5% NP-40, 4% glycerol, 1 mM MgCl2, 0.5 mM EDTA, 1 mM DTT, 20 min room temperature, 4 pmol oligo in 20 uL, gel at 4 C; recombinant protein; residues 1-384; protein details: C-terminal Strep; label: 5' Alexa488; single-stranded DNA
[10] = target: A3G W285A (human) (UniProt Q9HC16); conditions: EMSA: 10 mM Tris-HCl pH 7.5, 50 mM NaCl, 0.5% NP-40, 4% glycerol, 1 mM MgCl2, 0.5 mM EDTA, 1 mM DTT, 20 min room temperature, 4 pmol oligo in 20 uL, gel at 4 C; recombinant protein; residues 1-384; label: 5' Alexa488; single-stranded DNA
[11] = target: A3G W94L (human) (UniProt Q9HC16); conditions: EMSA: 10 mM Tris-HCl pH 7.5, 50 mM NaCl, 0.5% NP-40, 4% glycerol, 1 mM MgCl2, 0.5 mM EDTA, 1 mM DTT, 20 min room temperature, 4 pmol oligo in 20 uL, gel at 4 C; recombinant protein; residues 1-384; protein details: C-terminal Strep; label: 5' Alexa488; single-stranded DNA
[12] = target: A3G W94L/R213E/R215E (human) (UniProt Q9HC16); conditions: EMSA: 10 mM Tris-HCl pH 7.5, 50 mM NaCl, 0.5% NP-40, 4% glycerol, 1 mM MgCl2, 0.5 mM EDTA, 1 mM DTT, 20 min room temperature, 4 pmol oligo in 20 uL, gel at 4 C; recombinant protein; residues 1-384; protein details: C-terminal Strep; label: 5' Alexa488; single-stranded DNA
[13] = target: A3G W94L/R313E/R320E (human) (UniProt Q9HC16); conditions: EMSA: 10 mM Tris-HCl pH 7.5, 50 mM NaCl, 0.5% NP-40, 4% glycerol, 1 mM MgCl2, 0.5 mM EDTA, 1 mM DTT, 20 min room temperature, 4 pmol oligo in 20 uL, gel at 4 C; recombinant protein; residues 1-384; protein details: C-terminal Strep; label: 5' Alexa488; single-stranded DNA
[14] = target: A3G W94L/R374E/R376E (human) (UniProt Q9HC16); conditions: EMSA: 10 mM Tris-HCl pH 7.5, 50 mM NaCl, 0.5% NP-40, 4% glycerol, 1 mM MgCl2, 0.5 mM EDTA, 1 mM DTT, 20 min room temperature, 4 pmol oligo in 20 uL, gel at 4 C; recombinant protein; residues 1-384; protein details: C-terminal Strep; label: 5' Alexa488; single-stranded DNA

“GAAGAGGAAGGGAAGAAAGAGAAAGGGAGACCCAAAGAGGAAAGGTGAGGAGGTTAATTTGTGTAAATA [Alexa488 69-mer]”: binds [1]; binds [2]; binds [3]. “GAAGAGGAAGGGAAGAAAGAGAAAGGGAGACCCAAAGAGGAAAGGTGAGGAGGTTAATTTGTGTAAATA [Alexa488 69-mer]”: binds [4]; binds [5]; binds more weakly [6]. “GAAGAGGAAGGGAAGAAAGAGAAAGGGAGACCCAAAGAGGAAAGGTGAGGAGGTTAATTTGTGTAAATA [Alexa488 69-mer]”: binds more weakly [7]; binds more weakly [8]; binds more weakly [9]. “GAAGAGGAAGGGAAGAAAGAGAAAGGGAGACCCAAAGAGGAAAGGTGAGGAGGTTAATTTGTGTAAATA [Alexa488 69-mer]”: binds [10]; binds more weakly [11]; binds more weakly [12]. “GAAGAGGAAGGGAAGAAAGAGAAAGGGAGACCCAAAGAGGAAAGGTGAGGAGGTTAATTTGTGTAAATA [Alexa488 69-mer]”: binds more weakly [13]; binds more weakly [14].

For some assays here: Weaker means in comparison with the reference protein, sequence or condition of that experiment. For some assays here: Construct, isoform or probe ends are uncertain for at least one entry. For some assays here: At least one verdict rests on a figure or table, not on a statement of the authors.
